Results are given in words; binding and its absence hold for the method and conditions named. Some results given as binding are weak or reduced against the parent protein; the word gives no strength.
Target: T1, USP2 (UniProt O75604)
T1 sequence (looked up): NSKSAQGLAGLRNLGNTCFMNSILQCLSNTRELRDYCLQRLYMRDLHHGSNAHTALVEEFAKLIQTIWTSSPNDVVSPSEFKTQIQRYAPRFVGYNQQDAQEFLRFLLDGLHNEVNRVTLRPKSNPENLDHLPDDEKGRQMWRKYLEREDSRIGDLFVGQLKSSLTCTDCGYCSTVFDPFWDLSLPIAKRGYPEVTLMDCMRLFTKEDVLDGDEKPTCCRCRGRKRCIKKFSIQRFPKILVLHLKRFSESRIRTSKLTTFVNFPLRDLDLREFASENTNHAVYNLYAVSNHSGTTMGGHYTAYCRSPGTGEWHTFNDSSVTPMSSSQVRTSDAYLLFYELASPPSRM
Assay: activity probe labeling, gel shift

Protein sequences, listed by entry. Tags and fused reporters are not part of them. Residues count along the entry.
UniProt P05161, residues 2-156: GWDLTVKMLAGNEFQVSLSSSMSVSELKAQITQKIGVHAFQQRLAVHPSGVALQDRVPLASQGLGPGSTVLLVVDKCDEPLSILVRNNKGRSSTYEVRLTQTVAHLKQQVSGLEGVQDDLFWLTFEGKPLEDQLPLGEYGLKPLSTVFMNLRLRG

binding: binds
Substance: HA-Isg15Vs (from UniProt P05161 2-156)

Reference: patent US20140327158A1
